Data as given in PMC10740258.
Results are given in words; binding and its absence hold for the method and conditions named. In cells and extracts the contact can be indirect. Some binding calls cover weakened binding; strength is not graded here.

Sequences of proteins named here, by UniProt entry; tags and fusion partners are left off.
UniProt Q6R327: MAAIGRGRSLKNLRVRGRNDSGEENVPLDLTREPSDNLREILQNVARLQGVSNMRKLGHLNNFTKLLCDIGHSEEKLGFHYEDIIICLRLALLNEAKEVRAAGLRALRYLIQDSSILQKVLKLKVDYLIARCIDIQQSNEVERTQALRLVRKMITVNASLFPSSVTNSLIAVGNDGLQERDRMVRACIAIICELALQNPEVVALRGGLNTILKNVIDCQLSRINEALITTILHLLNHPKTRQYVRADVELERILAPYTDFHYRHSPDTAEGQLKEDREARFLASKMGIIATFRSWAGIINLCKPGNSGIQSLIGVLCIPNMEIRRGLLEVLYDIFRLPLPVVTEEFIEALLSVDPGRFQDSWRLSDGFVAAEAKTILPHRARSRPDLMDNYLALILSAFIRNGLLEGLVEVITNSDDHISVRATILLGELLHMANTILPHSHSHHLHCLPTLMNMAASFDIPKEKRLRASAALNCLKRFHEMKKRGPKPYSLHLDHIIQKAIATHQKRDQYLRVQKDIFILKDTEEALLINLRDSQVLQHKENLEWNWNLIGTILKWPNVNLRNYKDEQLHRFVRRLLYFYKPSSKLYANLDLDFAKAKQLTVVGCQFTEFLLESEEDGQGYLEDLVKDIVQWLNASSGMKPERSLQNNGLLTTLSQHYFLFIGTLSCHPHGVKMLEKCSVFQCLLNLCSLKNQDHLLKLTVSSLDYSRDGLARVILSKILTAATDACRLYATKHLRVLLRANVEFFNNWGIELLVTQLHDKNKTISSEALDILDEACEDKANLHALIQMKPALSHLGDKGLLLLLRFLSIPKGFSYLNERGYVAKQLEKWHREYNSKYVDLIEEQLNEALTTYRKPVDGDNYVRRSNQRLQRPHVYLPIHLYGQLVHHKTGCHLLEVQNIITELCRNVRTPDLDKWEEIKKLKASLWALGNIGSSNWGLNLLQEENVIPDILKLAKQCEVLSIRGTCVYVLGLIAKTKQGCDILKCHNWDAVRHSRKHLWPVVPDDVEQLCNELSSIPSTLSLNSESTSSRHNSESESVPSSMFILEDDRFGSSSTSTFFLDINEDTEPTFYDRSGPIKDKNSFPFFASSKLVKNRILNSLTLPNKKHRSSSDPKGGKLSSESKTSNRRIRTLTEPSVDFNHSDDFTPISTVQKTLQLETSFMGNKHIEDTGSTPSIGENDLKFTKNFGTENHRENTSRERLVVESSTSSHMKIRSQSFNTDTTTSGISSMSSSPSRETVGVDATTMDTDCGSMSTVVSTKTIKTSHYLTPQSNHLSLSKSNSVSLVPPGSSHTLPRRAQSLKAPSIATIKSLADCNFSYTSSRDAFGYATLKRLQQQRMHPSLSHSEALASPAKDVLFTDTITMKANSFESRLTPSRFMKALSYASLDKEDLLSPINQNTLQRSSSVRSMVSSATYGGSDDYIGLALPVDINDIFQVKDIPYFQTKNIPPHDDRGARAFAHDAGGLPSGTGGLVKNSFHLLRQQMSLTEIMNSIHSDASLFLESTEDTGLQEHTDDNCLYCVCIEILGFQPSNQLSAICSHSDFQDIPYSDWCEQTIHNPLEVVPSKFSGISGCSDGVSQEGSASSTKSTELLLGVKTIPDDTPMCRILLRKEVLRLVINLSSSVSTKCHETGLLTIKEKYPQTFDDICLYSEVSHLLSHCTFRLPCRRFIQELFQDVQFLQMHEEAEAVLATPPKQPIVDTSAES

Biological target: Rictor (endogenous) (human (endogenous in MDA-MB-231 and U87)) (UniProt Q6R327)
Assay: co-IP; IP of endogenous Rictor from MDA-MB-231 cells serum-starved overnight and stimulated with EGF for 10 min; immunoblot

B1: NUAK1 (endogenous) (protein, UniProt O60285 1-661)
chain: MEGAAAPVAGDRPDLGLGAPGSPREAVAGATAALEPRKPHGVKRHHHKHNLKHRYELQETLGKGTYGKVKRATERFSGRVVAIKSIRKDKIKDEQDMVHIRREIEIMSSLNHPHIISIYEVFENKDKIVIIMEYASKGELYDYISERRRLSERETRHFFRQIVSAVHYCHKNGVVHRDLKLENILLDDNCNIKIADFGLSNLYQKDKFLQTFCGSPLYASPEIVNGRPYRGPEVDSWALGVLLYTLVYGTMPFDGFDHKNLIRQISSGEYREPTQPSDARGLIRWMLMVNPDRRATIEDIANHWWVNWGYKSSVCDCDALHDSESPLLARIIDWHHRSTGLQADTEAKMKGLAKPTTSEVMLERQRSLKKSKKENDFAQSGQDAVPESPSKLSSKRPKGILKKRSNSEHRSHSTGFIEGVVGPALPSTFKMEQDLCRTGVLLPSSPEAEVPGKLSPKQSATMPKKGILKKTQQRESGYYSSPERSESSELLDSNDVMGSSIPSPSPPDPARVTSHSLSCRRKGILKHSSKYSAGTMDPALVSPEMPTLESLSEPGVPAEGLSRSYSRPSSVISDDSVLSSDSFDLLDLQENRPARQRIRSCVSAENFLQIQDFEGLQNRPRPQYLKRYRNRLADSSFSLLTDMDDVTQVYKQALEICSKLN
For B1, the binding was “binds”.
